This is one part of the list.
Experiments:
Test in all cases: glycan array binding signal (z-score within array); higher = stronger binding
Conditions in all cases: glycan notation: IUPAC condensed, linker removed
[1] = biological target: Neu5Ac(a2-6)GlcNAc(b1-4)GlcNAc(b1-4)GlcNAc
Outline: (§1)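 From the Consortium for Functional Glycomics database, 3228 arrays were curated, keeping only those whose protein sequence was available. Binding is given as a within-array Z-score averaged across arrays sharing a protein sequence and across linkers. Negative Z-scores can be read as non-binding.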

Neu5Ac(a2-8)Neu5Ac = biological target: Neu5Ac(a2-8)Neu5Ac
Outline: as §1

[2] = biological target: Neu5Ac(a2-8)Neu5Ac(a2-3)Gal(b1-3)GalNAc(b1-4)[Neu5Ac(a2-3)]Gal(b1-4)Glc
Outline: as §1

[3] = biological target: Neu5Ac(a2-8)Neu5Ac(a2-3)Gal(b1-3)GalNAc(b1-4)[Neu5Ac(a2-8)Neu5Ac(a2-3)]Gal(b1-4)Glc
Outline: as §1

[4] = biological target: Neu5Ac(a2-8)Neu5Ac(a2-3)Gal(b1-4)Glc
Outline: as §1

[5] = biological target: Neu5Ac(a2-8)Neu5Ac(a2-3)Gal(b1-4)GlcNAc
Outline: as §1

[6] = biological target: Neu5Ac(a2-8)Neu5Ac(a2-3)[Gal(b1-3)GalNAc(b1-4)]Gal(b1-4)Glc
Outline: as §1

[7] = biological target: Neu5Ac(a2-8)Neu5Ac(a2-3)[GalNAc(b1-4)]Gal(b1-4)Glc
Outline: as §1

[8] = biological target: Neu5Ac(a2-8)Neu5Ac(a2-8)Neu5Ac
Outline: as §1

[9] = biological target: Neu5Ac(a2-8)Neu5Ac(a2-8)Neu5Ac(a2-3)Gal(b1-4)Glc
Outline: as §1

[10] = biological target: Neu5Ac(a2-8)Neu5Ac(a2-8)Neu5Ac(a2-3)[Gal(b1-3)GalNAc(b1-4)]Gal(b1-4)Glc
Outline: as §1

[11] = biological target: Neu5Ac(a2-8)Neu5Ac(a2-8)Neu5Ac(a2-3)[GalNAc(b1-4)]Gal(b1-4)Glc
Outline: as §1

[12] = biological target: Neu5Ac(a2-8)Neu5Ac(a2-8)Neu5Ac(a2-8)Neu5Ac(a2-3)[GalNAc(b1-4)]Gal(b1-4)Glc
Outline: as §1

[13] = biological target: Neu5Ac(a2-8)Neu5Gc(a2-3)Gal(b1-4)GlcNAc
Outline: as §1

[14] = biological target: Neu5Ac(b2-6)Gal(b1-4)GlcNAc
Outline: as §1

Neu5Ac(b2-6)GalNAc = biological target: Neu5Ac(b2-6)GalNAc
Outline: as §1

[15] = biological target: Neu5Ac9Ac(a2-3)Gal(b1-3)GlcNAc
Outline: as §1

[16] = biological target: Neu5Ac9Ac(a2-3)Gal(b1-4)GlcNAc
Outline: as §1

[17] = biological target: Neu5Ac9Ac(a2-6)Gal(b1-4)GlcNAc
Outline: as §1

[18] = biological target: Neu5Gc(a2-3)Gal(b1-3)GlcNAc
Outline: as §1

[19] = biological target: Neu5Gc(a2-3)Gal(b1-3)[Fuc(a1-4)]GlcNAc
Outline: as §1

Neu5Gc(a2-3)Gal(b1-4)Glc = biological target: Neu5Gc(a2-3)Gal(b1-4)Glc
Outline: as §1

[20] = biological target: Neu5Gc(a2-3)Gal(b1-4)GlcNAc
Outline: as §1

[21] = biological target: Neu5Gc(a2-3)Gal(b1-4)GlcNAc(b1-3)Gal(b1-4)GlcNAc(b1-2)Man(a1-3)[Neu5Gc(a2-3)Gal(b1-4)GlcNAc(b1-3)Gal(b1-4)GlcNAc(b1-2)Man(a1-6)]Man(b1-4)GlcNAc(b1-4)GlcNAc
Outline: as §1

[22] = biological target: Neu5Gc(a2-3)Gal(b1-4)[Fuc(a1-3)]GlcNAc
Outline: as §1

[23] = biological target: Neu5Gc(a2-6)Gal(b1-4)GlcNAc
Outline: as §1

Neu5Gc(a2-6)GalNAc = biological target: Neu5Gc(a2-6)GalNAc
Outline: as §1

[24] = biological target: Neu5Gc(a2-8)Neu5Ac(a2-3)Gal(b1-4)GlcNAc
Outline: as §1

[25] = biological target: Neu5Gc(a2-8)Neu5Gc(a2-3)Gal(b1-4)GlcNAc
Outline: as §1

[26] = biological target: Neu5Gc(a2-8)Neu5Gc(a2-3)Gal(b1-4)GlcNAc(b1-3)Gal(b1-4)GlcNAc
Outline: as §1

[27] = biological target: Neu5Gc(a2-8)Neu5Gc(a2-6)Gal(b1-4)GlcNAc
Outline: as §1

[28] = biological target: Neu5Gc(b2-6)Gal(b1-4)GlcNAc
Outline: as §1

B1: ArathEULS3 TAP (Arabidopsis thaliana) (protein)
chain: IDENLYFQGGSMDEKTTGWRGGHVVEGLAGELEQLRARLEHHPQGQREPGGGGSLEITSLYKKAGFMEHHHQHHRHHQRDDGEDDRQSFGVPPPHVDAPPQPHGLYQSQPHFDPYAPTPQAPAPYRSETQFEPHAPPPYRSEPYFETPAPPPSFGHVSHVGHQSPNESYPPEHHRYGGYQQPSNSLLESHGDHSGVTHVAHHSSNQPQSSSGVYHKPDENRLPDNLAGLAGRATVKVYSKAEPNYNLTIRDGKVILAPADPSDEAQHWYKDEKYSTKVKDADGHPCFALVNKATGEAMKHSVGATHPVHLIRYVPDKLDESVLWTESKDFGDGYRTIRMVNNTRLNVDAYHGDSKSGGVRDGTTIVLWDWNKGDNQLWKIFPF
glycan array binding signal (z-score) [1]: 0.178
glycan array binding signal (z-score) (Neu5Ac(a2-8)Neu5Ac): -0.635
glycan array binding signal (z-score) [2]: -0.071
glycan array binding signal (z-score) [3]: 2.9
glycan array binding signal (z-score) [4]: -2.44
glycan array binding signal (z-score) [5]: -0.433
glycan array binding signal (z-score) [6]: 2
glycan array binding signal (z-score) [7]: -0.243
glycan array binding signal (z-score) [8]: -0.158
glycan array binding signal (z-score) [9]: -0.143
glycan array binding signal (z-score) [10]: -0.442
glycan array binding signal (z-score) [11]: -0.112
glycan array binding signal (z-score) [12]: 0.135
glycan array binding signal (z-score) [13]: -0.359
glycan array binding signal (z-score) [14]: -0.632
glycan array binding signal (z-score) (Neu5Ac(b2-6)GalNAc): -0.325
glycan array binding signal (z-score) [15]: 1.75
glycan array binding signal (z-score) [16]: -0.138
glycan array binding signal (z-score) [17]: 0.744
glycan array binding signal (z-score) [18]: 0.655
glycan array binding signal (z-score) [19]: -0.71
glycan array binding signal (z-score) (Neu5Gc(a2-3)Gal(b1-4)Glc): -0.271
glycan array binding signal (z-score) [20]: -1.29
glycan array binding signal (z-score) [21]: 0.599
glycan array binding signal (z-score) [22]: 1.15
glycan array binding signal (z-score) [23]: 0.214
glycan array binding signal (z-score) (Neu5Gc(a2-6)GalNAc): -0.53
glycan array binding signal (z-score) [24]: -0.325
glycan array binding signal (z-score) [25]: 0.412
glycan array binding signal (z-score) [26]: 0.691
glycan array binding signal (z-score) [27]: -0.043
glycan array binding signal (z-score) [28]: 0.874
